# Data taken from PubChem BioAssay AID493014 (National Center for Advancing Translational Sciences (NCATS), 2011).
# Out of some 340,000 compounds screened, about 170 (0.05%) were called active. The shares of active, inactive and inconclusive entries below differ from those in the screen. The call rests on the fitted dose curve; in most records, active means well fitted inhibition curve with a large enough effect in the signal ratio, with a control signal flat (not every such curve was filed as active); inconclusive means small, poorly fitted or top-dose-only effect, or effect the other way, or a change in a side signal; inactive means flat fitted curve, though single readings scatter; the % refers to the signal ratio. Where the call is inconclusive, the potency comes from a doubtful curve fit.
# Assay: qHTS Assay to Find Inhibitors of Chronic Active B-Cell Receptor Signaling;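 on activity change, negative = inhibition: plate controls were basal doxycycline-induced cells for no effect and cells given 10 µM MG132 for full effect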
# Conditions: ABC-DLBCL IkBa-CBG/CBR reporter, luminescence ratio (green luciferase fused to IkBa over red control in TMD8 lymphoma cells), 4 h; activity change, negative = inhibition: at 46.1 µM (top of the series)
# In short: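 Concentration-response series (up to 46 uM) were applied to TMD8 dual-reporter cells for 4 h at 37C with doxycycline. Green/red ratio, after filter-overlap correction, defined %Activity; red signal alone was normalised to basal cells and zero luminescence.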
# Potency means the concentration at half of the fitted maximal effect.
Compound,"activity change, negative = inhibition",Potency
CC(C)c1ncc(S(=O)(=O)c2ccc(C(F)(F)F)cn2)c(N)n1,inactive: -6.36%,
CCC(C)N=CC1=C(O)C(C(=O)OC)C(C)(C)CC1=O (stereo unspecified),,"inconclusive: 29.1 µM [falling, single point]"
OCc1c[nH]c2ccccc12,inactive: -13%,
C/C(=N\Nc1ccc(C(=O)O)cc1)c1ccc2c(c1)Nc1ccccc1S2,inconclusive: 23.2%,
COc1cc(C(=O)Nc2ccc(O)cc2)ccc1OC(C)=O,,"inconclusive: 11.6 µM [falling, partial curve]"
CC(=O)c1ccccc1NC(=O)c1ccc2c(c1)NC(=O)C(C)S2 (stereo unspecified),,"inconclusive: 23.1 µM [falling, partial curve]"
COc1cccc(CSc2nnc(C(F)(F)F)n2Cc2ccc(F)cc2)c1,,"inconclusive: 25.1 µM [rising, single point]"
COc1cccc(-c2c(C(=O)N/N=C(\C)c3cccs3)nnn2-c2nonc2N)c1,inconclusive: -5.25%,
Cc1cc2ncn(CCCCOc3ccccc3)c2cc1C,inconclusive: 16%,
CC1CC(C)CN(S(=O)(=O)c2ccc(C(=O)NCc3ccco3)cc2)C1 (stereo unspecified),inconclusive: 13.2%,
O=C(NNC(=O)c1ccccc1Br)c1ccc(SCC2CCCO2)c([N+](=O)[O-])c1 (stereo unspecified),inconclusive: -12%,
CC1CCc2sc3ncn4nc(C(=O)NCc5ccco5)nc4c3c2C1 (stereo unspecified),inconclusive: 7.84%,
O=C1CCCC(O)=C1N=Nc1cccc(C(=O)O)c1,,"inconclusive: 35.5 µM [rising, single point]"
Cc1cccc(NC(=O)c2ccc(C(=O)c3ccccc3)o2)c1,,"inconclusive: 25.1 µM [falling, single point]"
NC(=O)c1ccc(N=C2C(=O)Nc3ccc([N+](=O)[O-])cc32)cc1,inconclusive: -0.445%,
COc1cc(/C=N/N=C2/NC(=O)C(Cc3ccccc3)S2)ccc1O (stereo unspecified),,"inconclusive: 12.6 µM [cytotoxic, partial curve]"
CCN(CC)CCSc1nc2ccc(OC)cc2[nH]1,inconclusive: -2.88%,
NS(=O)(=O)c1ccc(NC(=O)CSc2nc3ccccc3c(=O)n2Cc2ccncc2)cc1,inconclusive: -0.0525%,
O=C(N/N=C/c1ccc(O)cc1)c1ccc(NC(=O)c2ccccc2Br)cc1,,"inconclusive: 35.5 µM [falling, partial curve, poor fit]"
O=C(Nc1nc(-c2ccccc2)cs1)c1ccccc1NS(=O)(=O)c1ccc(F)cc1,inconclusive: -0.952%,
COc1ccc(C)cc1S(=O)(=O)N(CC(=O)Nc1cccc([N+](=O)[O-])c1)c1ccc(C)c(C)c1,inconclusive: -10.1%,

# As a working copy, some entries already given:
Compound,"activity change, negative = inhibition",Potency
COc1cccc(CSc2nnc(C(F)(F)F)n2Cc2ccc(F)cc2)c1,,"inconclusive: 25.1 µM [rising, single point]"
COc1cccc(-c2c(C(=O)N/N=C(\C)c3cccs3)nnn2-c2nonc2N)c1,inconclusive: -5.25%,
Cc1cc2ncn(CCCCOc3ccccc3)c2cc1C,inconclusive: 16%,
CC1CC(C)CN(S(=O)(=O)c2ccc(C(=O)NCc3ccco3)cc2)C1 (stereo unspecified),inconclusive: 13.2%,
O=C(NNC(=O)c1ccccc1Br)c1ccc(SCC2CCCO2)c([N+](=O)[O-])c1 (stereo unspecified),inconclusive: -12%,
